Assay results taken from patent US20140080795A1, “NRF2 Deficiency Influences Susceptibility to Steroid Resistance via HDAC2 Reduction” (University of Rochester, priority 2010, published 2014).
“Also recorded” adds a separate entry of the source. At least one compound was matched to its structure with a doubt left.

Tests used:
KC = assay: LPS-induced lung inflammation in mice: KC levels in lung homogenates by ELISA; assay type: in vivo, mouse; conditions: for KC release in lung: budesonide 3 mg/kg pretreatment
neutrophils in BALF = assay: LPS-induced lung inflammation in mice: neutrophils in BALF (Diff-Quik differential counts); assay type: in vivo, mouse
MMP9 = MMP9 activity in mouse lungs by zymography; assay type: in vivo; conditions: HDAC2-/- mice, budesonide treatment
MCP-1 = assay: LPS-induced lung inflammation in mice: MCP-1 levels in lung tissue by ELISA; assay type: in vivo, mouse
[1] = Nrf2-/- mice, budesonide 1 and 3 mg/kg pretreatment

CCCC1O[C@@H]2C[C@H]3[C@@H]4CCC5=CC(=O)C=C[C@]5(C)[C@H]4[C@@H](O)C[C@]3(C)[C@]2(C(=O)CO)O1 (some centres unmarked) [budesonide]
KC release in lung (KC; HDAC2-/- mice, listed as Budesonide): no appreciable effect; also recorded: no observable effect | LPS-induced release of KC in lung (KC; [1]): did not reduce; also recorded: failed to respond | KC release in lung (KC; WT mice): significantly lowered; also recorded: inhibition; also recorded: completely blocked | neutrophil counts in BALF (neutrophils in BALF; HDAC2-/- mice, budesonide 3 mg/kg pretreatment, LPS): had no effect | neutrophil influx in BALF (neutrophils in BALF; Nrf2-/- mice, budesonide 1 and 3 mg/kg pretreatment, LPS): not altered; also recorded: failed to respond | neutrophil counts / neutrophilic influx in BALF (neutrophils in BALF; WT mice, budesonide 3 mg/kg intranasal 3 days before aerosolized LPS): significantly reduced; also recorded: significantly blocked | effect on MMP9 activity in lung (MMP9): only a minimal effect | effect on MMP9 activity in lung (MMP9; listed as Budesonide): ineffective | MCP-1 levels in lung (MCP-1; HDAC2-/- mice, budesonide 3 mg/kg pretreatment): reduced; also recorded: partially blocked | LPS-induced release of MCP-1 in lung (MCP-1; [1]): did not reduce; also recorded: failed to respond | MCP-1 release in lung (MCP-1; WT mice, budesonide 3 mg/kg pretreatment): significantly lowered; also recorded: complete inhibition; also recorded: completely blocked
